Source: the supplement of paper PMC12764529
± gives the half width of the 95% confidence interval. The two proteases of the assay disagree for many of these sequences.

Key:
[1] = folding stability dG unfold from chymotrypsin proteolysis; higher = more stable
Procedure: (§1)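 Folding stability of de novo designed mini-proteins (<80 aa, no Cys; designed by TrROS, TrMRF, ProteinMPNN and the joint model) was measured by cDNA display proteolysis with trypsin and chymotrypsin. Each protease was used at 11 concentrations in a threefold dilution series plus a no-protease condition. K50 was inferred by Bayesian fitting of sequencing counts, and dG unfold was derived against a sequence-predicted unfolded-state K50 (Tsuboyama et al. method). Sequences shown include variable-length N-terminal GS-type padding (SAGGSAGG...) inside a display construct carrying a PA tag. Rows were kept only if the AF2 dimer inter-PAE was >15, to exclude likely homo-oligomers.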

[2] = folding stability dG unfold (combined trypsin and chymotrypsin); higher = more stable
Procedure: as §1

Sequence | folding stability dG unfold [1] [kcal/mol] | folding stability dG unfold [2] [kcal/mol]
SGAVAEELKAAGYPVLSVEFDPETGTLTVEVAVEDPAQPVARTLTITIPLPPDATPEEATAAVRAAVAAASA [r9_184_JUSTAS] | 2.924 ± 0.01 | 2.61 ± 0.042
SAGGSAGGSKILEIERDPEKGLVKITVPPDVPPNPHPRLLKVEPKNNKYIVTFPMSPSDEIELSAGGSAGGS [r20_37_JUSTAS] |  | < -1
SAGGSAGGSAGGMTVLTLTRRNYIDPARPVTITITLPLPLPPLPFPEALTTPSGIFGPLGSAGGSAGGSAGG [r11_419_JUSTAS] | 1.21 ± 0.18 | 0.42 ± 0.16
SAGGSVLVTLTNPADGTPVTLPTPAEEAEAILASGDTAALEARHPGRPVAAVTVDPVSPRPPVPPGLASAGG [r13_629_JUSTAS] | 0.223 ± 0.095 | -0.651 ± 0.38
SAGGMVETTETVVEPGRIRVERRVTLPDGTEVEEVEEVPPAAGGVWEVRSRVRRGEGEEEVARREVAPSAGG [r13_728_JUSTAS] |  | < -1
SAGGSAPVIVKEASLEEIKELKKKGVKKIILVEKNPEIAEKIKKEFEKEDDIPIETVSEEEAKKLKSAGGSA [r15_243_TrMRF] | -0.294 ± 0.13 | -0.718 ± 0.28
SAGGSAGGSAGGSLVSTSPLPSSSTLVTEKGPSPEVTVTVVTVKPGGSRSVTTLPVSESSAGGSAGGSAGGS [r10_140_JUSTAS] | 0.474 ± 0.057 | -0.143 ± 0.12
SAGGSAGGSAGELTLELRVDTPEEAVRLAARLRELGYDVEVEVAPDPETGTYTVRLRVRLPASAGGSAGGSA [r18_455_TrMRF] | 4.3 ± 0.051 | 3.93 ± 0.094
SAPDKIEIPITFPNGYTFWIKIDPDRIRVTWMDNGLRREKEITPDGMIKLDFRMPNGRPIMSPTIPLEDSAG [r14_213_TrROS] | 1.93 ± 0.12 | 
SAGGSAGGSAMSVSVSSPENAEKLAKEIKEKNPNEIPKITKGSGSNSYTLTLPSGKNIKVSSSAGGSAGGSA [r18_154_JUSTAS] |  | < -1
SAGGSAGGSAGGKKIIKVNLRIYDPVNPKVTVLPIEAPFDEIIKIAKEIAAPDQVVEISSAGGSAGGSAGGS [r10_397_TrMRF] | -0.506 ± 0.097 | -0.654 ± 0.16
SAGGSAGGSAGMITIERIPGSGKLVITITDPGSGKVLTIPFDNADPKEALAKAKELLKKLSAGGSAGGSAGG [r17_386_JUSTAS] | 3.19 ± 0.048 | 3.25 ± 0.075
SAGGSAGGSWITPEWIEEIARYLARELGIDDVKIEVERRPDGYVTVEIRNPANGRKVEITVPWSAGGSAGGS [r12_1000_TrROS] | 3.06 ± 0.1 | 
SAGGSAGGSAGGMITVKDPATGKWREVTPEELEEVLAANPGPITVEREGGRRTVPAALLSAGGSAGGSAGGS [r10_839_JUSTAS] |  | < -1
SAGGSAGGSAGIKKQRNPDGQERETIEIRTKNQPIPITFPPDDNADDLANNFGLPADDIRSAGGSAGGSAGG [r11_1039_TrROS] | 0.682 ± 0.039 | 0.28 ± 0.079
SAGGSAGGSAGGLRIRGDGKEIVELIEEAGLGLKDPRVEPHGDRPIVEAEIELPPDLDLSAGGSAGGSAGGS [r10_885_TrMRF] | 1.67 ± 0.022 | 1.2 ± 0.066
SAGGSAGGSAGGPLAEIEEAGFKVLAVPAPTPADGQPWVAVLVEHGSGYRVYLVPAEEASAGGSAGGSAGGS [r10_35_TrMRF] | 1.57 ± 0.039 | 0.969 ± 0.065
SVPADAPPGYVAEKVEIVIKVPKSLLDKNGKIKPEVKKEAEEEAEKLKEEIKKKYPDVNVKDVGITIELESA [r9_943_JUSTAS] | 1.12 ± 0.12 | 0.358 ± 0.69
SAGGSAGGSAGMSRISVEPGPGRVTVTTEVETEEIVPGTGTPKLRRSTTVTVLPAGELAPSAGGSAGGSAGG [r17_51_JUSTAS] | 1.12 ± 0.045 | 0.646 ± 0.059
MKTVVIKTTITLTSPDGTRSTTTLETEIPPSELSPEVIEEIKKKFEEIAQKLEEEGYKVEVTVEIVPEGAES [r1_221_JUSTAS] | 1.91 ± 0.21 | 
SAGGSAGGSAGLLPYPVTDVSVEELPDGLVRVTITLPNGEPLPLVVSPDDPVVQDLLDALSAGGSAGGSAGG [r11_122_TrMRF] | 1.85 ± 0.11 | 1.37 ± 0.13
SAGGSAGGSAGGALTDAVPLGESEAPLPLPDGSQLRVRRVTVRDPVTGETATFERVELLPSAGGSAGGSAGG [r7_546_TrMRF] | 1.11 ± 0.05 | 0.476 ± 0.043
DFLELPGGWKVTEILEKKRLSDGTVEIKAVVKDPNNPVETEIDVKIPIPEVPEVPVEVRLIPGTGELIGILS [r1_411_JUSTAS] |  | < -1
SAGGSAGGSAGKLKVEIEERNGKLVLKVKLELEPEPEPVEVEKKVEVKTETKMSLEELKKSAGGSAGGSAGG [r17_51_TrROS_Hall] | 0.952 ± 0.058 | 0.471 ± 0.096
SAGGSAGGSANIDIKVEENPGNGYRKVEVTMTVDDLRELFGNEPIPPGEERQIKMTIYLPIPSAGGSAGGSA [r18_327_TrROS] | 1.37 ± 0.095 | 
SAGGSAGGSATLAVRDPSTDAVLVYDPVTGALLLRFPDGLVAYDPRTGERRLFPAGTTITLPASAGGSAGGS [r12_584_TrMRF] | 1.5 ± 0.14 | 0.871 ± 0.081

Sequence | folding stability dG unfold [1] [kcal/mol] | folding stability dG unfold [2] [kcal/mol]
SAGGSAGGSAGGGPSSSTSVSTSTTPGEGERIVTTTTFYPSNGTTTTTTTTVDPATGAGGSAGGSAGGSAGG [r7_231_JUSTAS] | 1 ± 0.036 | 0.494 ± 0.11
SAGGSAGGSSKNGKPKPTIKVEMPDKPGPHEIPIPESDPDEAKTLAEELAQKWPGVPVRIEPTSAGGSAGGS [r12_601_TrROS] | 0.989 ± 0.057 | 
SAGGSAMKKEITIKAPGLSIEEIKELLKKLGITPLKYDENTGTITILATESDIKKIESLLNYTVISSAGGSA [r15_731_JUSTAS] | 3.63 ± 0.16 | 4.15 ± 0.23
SAGGMIKIKNKKTGKEIEITEINKENPVVKIKVKNKNGETKEIEVPKSLDEIVEELKKKGVEVEIEPSAGGS [r16_748_TrROS_Hall] | 1.5 ± 0.21 | 0.947 ± 0.44
SAGMDPSDPNSITTLTTEVEPLPDGSTRVTTYTKLPDGTIVKNVTTLDPAGNVLTTTTTPIPPEALNASAGG [r19_285_JUSTAS] | 3.85 ± 0.06 | 
SAGGMLVLDLGDDVFVAEIRTERRVERDPEHPDRFRVETRPRIRVRPVRRPDVLPLPPVGLDDPRFLSAGGS [r16_395_TrMRF] | 1.13 ± 0.16 | 0.538 ± 0.18
SAGGSAGGSAGGMYSVTLTPVSSPDGELRLRAVYPELGLVRDFDPATGRPVRVVPAALLSAGGSAGGSAGGS [r10_589_JUSTAS] | 0.411 ± 0.22 | -0.422 ± 0.26
SAGNMRIEIEGEPYPVIPMPASDLRDLLKDPNIKAIKVRNPNEPAIYPLPDGKIQGPLPPNMSIRIKKSAGG [r19_152_TrROS] | 1.16 ± 0.043 | 0.72 ± 0.1
SIRGMPPEVVLYIIRFFAREQKNKGMPPDDRPIEINIMMPNPEARKDAKKEIKEENPGIKDVKIEVMPPNSA [r9_341_TrROS] | 3.1 ± 0.17 | 2.61 ± 0.56
SAGGMILKTEVTEVDPATGLVTVRYEVSPEDLKKLGPLNLPGVTETRYEPGKNTITAVMPRAAAEALSAGGS [r16_614_JUSTAS] | 1.09 ± 0.051 | 0.645 ± 0.063
SAGGKVVVVPFPGPVTPETVAALAAKFIEEGLYDVPLVVVSEVEGRRPDGRPGRRRFGFVYVAKAPKSAGGS [r16_44_TrMRF] | 1.98 ± 0.13 | 1.59 ± 0.1
SAKYKIIEAKPGKNVVTITVEYTLPNGEKLTKPIPINAINPVIVEVSEDSITIYDPNNGKLITFPAEKLSAG [r14_947_TrMRF] | 2.87 ± 0.037 | 2.49 ± 0.12
SAGGMNSMRLTVEFPSPEQREEKLRQIVHKHGFTIKPKEVEPNPNGRMTHTIEINMPPKVRDAFKDLSAGGS [r8_357_TrROS] | -0.152 ± 0.19 | -0.659 ± 0.14
SAGGSAGGSAGGMVITVPKENLKELIDALRKEGKARIVSVEEKDGLVTITVELEDEELESAGGSAGGSAGGS [r10_695_TrROS_Hall] | 2.28 ± 0.075 | 
SAGGEMEKIAEFEFTLENGTKIRIEVYKNKETEEYVVKMEVINKETGETKTIEITVKPGEKIEIKFPSAGGS [r8_249_TrROS_Hall] |  | > 6
SAGGSAEVRVVAEPLPDDYLLVLVEFDSPEVLPEALEAIPGVVEVRAYRFLEEGRPRYRVLALVPASAGGSA [r15_344_TrMRF] | 2.02 ± 0.059 | 
SAGGSSESKTVTAPDGRVLEFTKSLDPTSSNSRYTLTVYAPESGEPLREAEFSSEEEAEKYIAEGLGSAGGS [r8_450_JUSTAS] | 0.487 ± 0.072 | 
SAGGGMGRIPLYGEERVEEIAAEPDVVSVEEDPETGRTYVYFERPDGYYSFTRDNETGEITEKTPLPSAGGS [r8_251_JUSTAS] | -0.523 ± 0.5 | 
SAPPPVQTLTLTVYDPETGRLVKIEVTRRPDGTLEVRVEVVDLETNEVTTETITLPGLTLDELLKLLEEASA [r9_618_TrROS_Hall] | 4.02 ± 0.16 | 
SAGGSAGGSAGGPEVTLRLRLEVEVRVVVLKDGKLEEKTFRFELEVEVRFEPGMSLEELSAGGSAGGSAGGS [r10_633_TrROS_Hall] | 4.09 ± 0.086 | 
SAGGSEPPKIKKIKDINVKHERHNDRPYWEVKIRIKLKNGNTAEIDIEMPGMPPEEAREQIKDILKSAGGSA [r2_26_TrROS] | 0.872 ± 0.089 | 
SAGGSAGGSPPPITIFTAYKDPEDGPYWMKRRKINPDNGNIEEEWYPADDLADHGLPPGDIFISAGGSAGGS [r12_123_TrROS] | 0.413 ± 0.33 | 
SAGGSAGGSDLPIKIKMEPIPPGMPPGQVYRMEIEIPNGWVIRYSFYFTGGKLEFEPMEIKPVSAGGSAGGS [r12_1049_TrROS] | 3.58 ± 0.08 | 
SAGGSAGGSADAVVVEVTLPGGGKARAVFFPDGSVVIVVDFPDGRRAVIFLENNEIVVLPVDSAGGSAGGSA [r18_285_TrMRF] | 3.15 ± 0.19 | 
SAGGSAGGSAAPIPPDQSATSLTLLPDGTVRKTTTTYPPPEFVTTTTTTIPISPEEGAAAGSAGGSAGGSAG [r3_437_JUSTAS] |  | < -1

A few values from the list.
folding stability dG unfold [1] [kcal/mol], SAGGMNSMRLTVEFPSPEQREEKLRQIVHKHGFTIKPKEVEPNPNGRMTHTIEINMPPKVRDAFKDLSAGGS [r8_357_TrROS] is entered as -0.152 ± 0.19
folding stability dG unfold [1] [kcal/mol], SAGNMRIEIEGEPYPVIPMPASDLRDLLKDPNIKAIKVRNPNEPAIYPLPDGKIQGPLPPNMSIRIKKSAGG [r19_152_TrROS] is entered as 1.16 ± 0.043
folding stability dG unfold [2] [kcal/mol], SAGGSAMKKEITIKAPGLSIEEIKELLKKLGITPLKYDENTGTITILATESDIKKIESLLNYTVISSAGGSA [r15_731_JUSTAS] is entered as 4.15 ± 0.23
